Results are given in words; binding and its absence hold for the method and conditions named. A result given as binding can be weak or reduced; the word gives no strength.

Assay [1] addresses T1, bacteriophage T7 gp15 core protein (bacteriophage T7) (UniProt P03725).
T1 sequence: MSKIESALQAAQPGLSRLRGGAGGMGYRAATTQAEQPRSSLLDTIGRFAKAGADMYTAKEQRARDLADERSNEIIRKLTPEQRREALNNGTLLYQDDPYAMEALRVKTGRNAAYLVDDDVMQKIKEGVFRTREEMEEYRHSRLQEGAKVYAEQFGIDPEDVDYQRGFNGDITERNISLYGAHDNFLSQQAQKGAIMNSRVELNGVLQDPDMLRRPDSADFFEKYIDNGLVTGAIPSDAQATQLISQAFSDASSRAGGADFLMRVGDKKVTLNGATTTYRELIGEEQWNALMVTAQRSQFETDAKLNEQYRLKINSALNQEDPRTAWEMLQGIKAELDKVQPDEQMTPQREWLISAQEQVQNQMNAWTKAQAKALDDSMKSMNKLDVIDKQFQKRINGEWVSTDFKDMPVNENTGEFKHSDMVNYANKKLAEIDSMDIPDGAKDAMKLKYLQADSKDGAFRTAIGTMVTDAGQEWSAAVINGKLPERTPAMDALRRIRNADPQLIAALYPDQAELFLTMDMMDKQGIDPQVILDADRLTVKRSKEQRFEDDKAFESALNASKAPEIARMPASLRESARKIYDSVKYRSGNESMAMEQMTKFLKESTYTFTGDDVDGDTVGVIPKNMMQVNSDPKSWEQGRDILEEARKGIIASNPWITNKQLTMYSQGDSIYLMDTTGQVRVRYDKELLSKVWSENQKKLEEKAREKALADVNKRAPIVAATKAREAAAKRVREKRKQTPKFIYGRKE
As to the kind of experiment: cryo-EM structure.

For assay [2], the target named is T1, bacteriophage T7 gp15 core protein (bacteriophage T7). In words: negative-staining electron microscopy.

Turning to “bacteriophage T7 gp16 core protein (from UniProt P03726)”, the binding entry in assay [1] and in assay [2] was “binds” in each case.
